The assay deals with T1, FLAG-ETS-1 (E26 transformation specific sequence 1) (UniProt P14921).
T1 sequence: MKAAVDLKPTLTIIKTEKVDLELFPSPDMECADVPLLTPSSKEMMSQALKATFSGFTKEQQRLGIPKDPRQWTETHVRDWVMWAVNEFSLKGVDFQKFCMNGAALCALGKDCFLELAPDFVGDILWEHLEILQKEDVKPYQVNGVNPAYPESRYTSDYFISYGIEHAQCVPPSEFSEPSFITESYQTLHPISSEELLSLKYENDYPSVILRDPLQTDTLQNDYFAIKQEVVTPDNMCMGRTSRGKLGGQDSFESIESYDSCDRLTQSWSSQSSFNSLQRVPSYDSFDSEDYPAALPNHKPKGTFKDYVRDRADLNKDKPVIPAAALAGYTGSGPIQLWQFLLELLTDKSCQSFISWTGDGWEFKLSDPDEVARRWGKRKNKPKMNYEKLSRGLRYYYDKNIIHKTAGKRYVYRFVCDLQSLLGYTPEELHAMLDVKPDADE
Briefly: co-IP; PC-3 cells transfected with FLAG or the FLAG-tagged protein, treated with the solvent control or 10 ng/ml HGF; analysed using the IP methods.

By UniProt entry, the sequences of proteins in these tests, tags left out.
UniProt Q9ULW0: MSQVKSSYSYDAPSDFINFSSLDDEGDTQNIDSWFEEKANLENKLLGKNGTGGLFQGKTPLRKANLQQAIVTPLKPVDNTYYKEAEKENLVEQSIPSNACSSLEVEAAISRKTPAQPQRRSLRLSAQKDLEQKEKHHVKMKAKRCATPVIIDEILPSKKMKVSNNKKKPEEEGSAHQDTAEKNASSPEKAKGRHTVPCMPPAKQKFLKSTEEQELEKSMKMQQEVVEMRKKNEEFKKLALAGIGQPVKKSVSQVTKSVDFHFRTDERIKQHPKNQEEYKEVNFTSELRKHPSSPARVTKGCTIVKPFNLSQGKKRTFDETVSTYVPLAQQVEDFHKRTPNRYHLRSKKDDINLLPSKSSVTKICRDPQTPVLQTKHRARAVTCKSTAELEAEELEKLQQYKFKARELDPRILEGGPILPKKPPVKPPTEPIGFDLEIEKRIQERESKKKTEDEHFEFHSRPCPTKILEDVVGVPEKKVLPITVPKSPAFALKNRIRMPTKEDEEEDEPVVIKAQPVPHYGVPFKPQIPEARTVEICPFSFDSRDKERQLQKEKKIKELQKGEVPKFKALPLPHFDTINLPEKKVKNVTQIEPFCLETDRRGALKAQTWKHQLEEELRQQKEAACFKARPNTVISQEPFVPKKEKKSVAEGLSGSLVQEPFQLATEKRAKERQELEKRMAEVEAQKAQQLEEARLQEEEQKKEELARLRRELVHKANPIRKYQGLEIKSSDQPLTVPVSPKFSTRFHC

Results are given in words; binding and its absence hold for the method and conditions named. Binding seen in cells or lysates may run through a third protein. Some results given as binding are weak or reduced against the parent protein; the word gives no strength. Sequences can lack the tags named with a protein.

For “TPX2 (the targeting protein for Xklp2) (from UniProt Q9ULW0 1-747)”, the binding result is given as “binds”.

The values above are taken from paper PMC8193931.
